Data reported in PubChem BioAssay AID192 (DTP/NCI, 2004).
The list shows only some results of the screen, not a fair sample: it is rich in T/C values a quarter to a half above the control, in often repeated tests (any T/C) and in doses without a T/C. Other doses and runs of a compound stand elsewhere. T/C: endpoint of the treated group in % of that of the vehicle group. Some entries give survivors of the animals treated and no T/C: the source files T/C as zero there, which appears to mark a toxic dose or a test without result, not a measured value. Some doses without a T/C left all or most animals alive at the check, yet need not have been tolerated: the source hardly ever lists a survival T/C far under the control, and the zero likely stands for such cases as well. Survivors were counted at the toxicity check, usually on the fifth day, unless a day is given; later deaths do not show. Schedules are NCI's codes, read here as Q, the interval in days (D) or hours (H), X, the number of doses. Some structures stand for samples that the source files as different forms (salt, stereo form or complex); doses refer to the form tested. Some doses were run more than once; the results are listed from low to high. For survival time, the PubChem record calls one and a half times the control and up active, and a quarter to a half above the control has no call in these data; cut-offs in other NCI protocols can differ. Some T/C values are followed by the survivors on the day toxicity was checked, most often the fifth; where none is given, no animal had died by that day.

System: BDF1 mice, B16 melanoma ip, median survival T/C
Assay: NCI In Vivo Anticancer Drug Screen. Data for tumor model B16 Melanoma (intraperitoneal) in B6D2F1 (BDF1) mice
Settings: T/C endpoint: median survival time, higher T/C = longer survival
How it was run: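 Antitumor activity is assessed in mice bearing a transplanted tumor, with survival or tumor size compared against vehicle-dosed controls and expressed as T/C.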

[1] = dose: 100.0 mg/kg/injection, schedule: Q01DX009 (ip), vehicle: saline
[2] = dose: 200.0 mg/kg/injection, schedule: Q01DX009 (ip), vehicle: saline
[3] = dose: 400.0 mg/kg/injection, schedule: Q01DX009 (ip), vehicle: saline with Tween-80

Structure (SMILES): COc1ccc2c(c1OC(C)=O)-c1cc(O)cc3c1C(C2)N(C(=O)CN(CCCl)CCCl)CC3 (stereo not given)
- T/C (dose: 1.56 mg/kg/injection, schedule: Q01DX009 (ip), vehicle: saline with Tween-80): 129 % of control
- T/C (dose: 12.5 mg/kg/injection, schedule: Q04DX003 (ip), vehicle: DMSO): 134 and 141 % of control [9 of 10 alive]
- survivor count (dose: 25.0 mg/kg/injection, schedule: Q01DX009 (ip), vehicle: saline with Tween-80): 10 of 10
- T/C (dose: 25.0 mg/kg/injection, schedule: Q04DX003 (ip), vehicle: DMSO): 135 and 144 % of control
- T/C (dose: 50.0 mg/kg/injection, schedule: Q04DX003 (ip), vehicle: DMSO): 136 % of control [9 of 10 alive]
- survivor count (dose: 100.0 mg/kg/injection, schedule: Q04DX003 (ip), vehicle: DMSO): 9 of 10 and 10 of 10

Structure (SMILES): C[C@H]1C(=O)O[C@@H]2CCN3CC=C(COC(=O)[C@](C)(O)[C@@]1(C)O)[C@H]23
- T/C (dose: 50.0 mg/kg/injection, schedule: Q01DX009 (ip), vehicle: saline): 128 % of control
- T/C [1]: 133 % of control
- T/C [2]: 145 % of control

Structure (SMILES): NC(=O)c1ccc(-c2c3ccccc3cc3c2ccc2ccccc23)cc1
- survivor count (dose: 200.0 mg/kg/injection, schedule: Q01DX009 (ip), vehicle: saline with Tween-80): 10 of 10
- survivor count [3]: 10 of 10

Structure (SMILES): COc1ccc(C(=O)C(C)Br)c(OCc2ccccc2)c1OC (stereo not given)
- survivor count [3]: 10 of 10

Structure (SMILES): O=C1C2C(C(=O)N1c1ccc(OCc3ccccc3)cc1)C1c3ccccc3C2C2CCCCN21 (stereo not given)
- survivor count (dose: 25.0 mg/kg/injection, schedule: Q01DX009 (ip), vehicle: water): 10 of 10

Structure (SMILES): COC(=O)C12Oc3ccc(-c4ccc5c(c4O)C(O)=C4C(=O)CC(C)C(O)C4(C(=O)OC)O5)c(O)c3C(O)=C1C(=O)CC(C)C2O (stereo not given)
- survivor count (dose: 2.5 mg/kg/injection, schedule: Q01DX009 (ip), vehicle: saline with Tween-80): 10 of 10
- survivor count (dose: 5.0 mg/kg/injection, schedule: Q01DX009 (ip), vehicle: saline with Tween-80): 10 of 10
- survivor count (dose: 10.0 mg/kg/injection, schedule: Q01DX009 (ip), vehicle: saline with Tween-80): 9 of 10

Structure (SMILES): O=C(NC(CS)C(=O)O)OCc1ccccc1 (stereo not given)
- survivor count (dose: 200.0 mg/kg/injection, schedule: Q01DX009 (ip), vehicle: Klucel (hydroxypropylcellulose) (HPC)): 6 of 10

Structure (SMILES): CCCCCCCCCCCCCCCCC(C(=O)O)C(O)(CC(=O)O)C(=O)O (stereo not given)
- survivor count (dose: 50.0 mg/kg/injection, schedule: Q01DX009 (ip), vehicle: Klucel (hydroxypropylcellulose) (HPC)): 10 of 10

Structure (SMILES): CCc1nc(N)nc(N)c1-c1ccc(Cl)cc1
- survivor count (dose: 4.0 mg/kg/injection, schedule: Q06HX012 (ip), vehicle: Klucel (hydroxypropylcellulose) (HPC)): 9 of 10
- survivor count (dose: 32.0 mg/kg/injection, schedule: Q06HX004 (ip), vehicle: Klucel (hydroxypropylcellulose) (HPC)): 3 of 10
- survivor count (dose: 32.0 mg/kg/injection, schedule: Q06HX012 (ip), vehicle: Klucel (hydroxypropylcellulose) (HPC)): 6 of 10
- survivor count (dose: 64.0 mg/kg/injection, schedule: Q01DX001 (ip), vehicle: Klucel (hydroxypropylcellulose) (HPC)): 9 of 10
- survivor count (dose: 64.0 mg/kg/injection, schedule: Q01DX001 (oral), vehicle: Klucel (hydroxypropylcellulose) (HPC)): 6 of 10
- survivor count (dose: 64.0 mg/kg/injection, schedule: Q01DX009 (ip), vehicle: Klucel (hydroxypropylcellulose) (HPC)): 7 of 10
- survivor count (dose: 64.0 mg/kg/injection, schedule: Q01DX009 (oral), vehicle: Klucel (hydroxypropylcellulose) (HPC)): 6 of 10
- survivor count [1]: 0 of 6
- survivor count (dose: 128.0 mg/kg/injection, schedule: Q01DX001 (ip), vehicle: Klucel (hydroxypropylcellulose) (HPC)): 0 of 10
- survivor count (dose: 128.0 mg/kg/injection, schedule: Q01DX001 (oral), vehicle: Klucel (hydroxypropylcellulose) (HPC)): 1 of 10
- survivor count (dose: 128.0 mg/kg/injection, schedule: Q04DX003 (ip), vehicle: Klucel (hydroxypropylcellulose) (HPC)): 2 of 10
- survivor count (dose: 128.0 mg/kg/injection, schedule: Q08DX002 (ip), vehicle: Klucel (hydroxypropylcellulose) (HPC)): 0 of 10
- survivor count [2]: 0 of 6
- survivor count (dose: 400.0 mg/kg/injection, schedule: Q01DX009 (ip), vehicle: saline): 0 of 6

Structure (SMILES): Cc1c2ccccc2c(C)c2c1ccc1ccccc12
- T/C (dose: 8.0 mg/kg/injection, schedule: Q01DX009 (ip), vehicle: saline with Tween-80): 128 % of control
- survivor count (dose: 32.0 mg/kg/injection, schedule: Q01DX009 (ip), vehicle: saline with Tween-80): 10 of 10
- survivor count (dose: 64.0 mg/kg/injection, schedule: Q01DX009 (ip), vehicle: saline with Tween-80): 10 of 10
